This test addresses catalytic subunit of PP2A, endogenous in MDA-MB-231 cells (human) (UniProt P67775). The experiment in a line: co-immunoprecipitation with the PP2A catalytic subunit from MDA-MB-231 cells, immunoblot. A general note: A western blot detects proteins with antibodies after separation by electrophoresis.

The chains behind the UniProt entries cited, without tags or fusion partners. Residues count along the entry.
UniProt P67775: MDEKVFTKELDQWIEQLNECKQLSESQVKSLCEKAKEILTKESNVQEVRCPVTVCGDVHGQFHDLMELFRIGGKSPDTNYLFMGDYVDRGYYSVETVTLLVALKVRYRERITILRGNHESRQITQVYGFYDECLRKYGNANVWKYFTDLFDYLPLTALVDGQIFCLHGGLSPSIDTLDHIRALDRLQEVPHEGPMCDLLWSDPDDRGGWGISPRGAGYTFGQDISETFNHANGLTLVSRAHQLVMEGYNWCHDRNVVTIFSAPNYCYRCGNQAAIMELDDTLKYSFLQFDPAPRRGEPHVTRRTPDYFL
UniProt Q01105, residues 2-290: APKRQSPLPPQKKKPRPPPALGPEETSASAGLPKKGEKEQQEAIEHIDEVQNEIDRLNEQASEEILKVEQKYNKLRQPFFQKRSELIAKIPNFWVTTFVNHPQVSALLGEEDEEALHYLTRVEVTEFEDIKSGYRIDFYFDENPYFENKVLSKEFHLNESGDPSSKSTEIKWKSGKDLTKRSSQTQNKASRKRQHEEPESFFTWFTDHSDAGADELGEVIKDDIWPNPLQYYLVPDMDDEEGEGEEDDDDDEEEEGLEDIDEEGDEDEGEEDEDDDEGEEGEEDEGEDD

These are yes or no findings as the source states them, for the method shown. In cells and extracts the contact can be indirect. Some binding calls cover weakened binding; strength is not graded here.

Regarding “I2PP2A (also known as SET), endogenous in human cells (from UniProt Q01105 2-290)”, the binding result is reported as “binds”.

These data come from patent US20160008424A1.
